{"source": "patent US20070092578A1", "about": "“Skin rejuvinating supplement” (priority 2005, published 2007)", "origin": "cited, not measured here", "details": "relative to vitamin E; stated without a test", "note": "Some entries share one result that the patent states for a list of compounds.", "data": [{"compound": "CC1=C(/C=C/C(C)=C/C=C/C(C)=C/C=C/C=C(C)/C=C/C=C(C)/C=C/C2=C(C)C(=O)[C@@H](O)CC2(C)C)C(C)(C)C[C@H](O)C1=O", "note": "[astaxanthin]", "values": [{"measurement": "times more effective antioxidant as compared to vitamin E", "result": "100˜1,000 times"}]}]}
